This is an account of results in PubChem BioAssay AID1347426 (Functional Genomics Laboratory (NCATS/FGL), 2020).

Screen size: about 31,000 sequences; about 1,400 (4.5%) were called active.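 How the source made its calls: active means median seed-adjusted z-score above 1 or below -1; inactive means the rest.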 The list shows a part of the results.

This assay can be described thus: Novel Modifiers of Survival Motor Neuron (SMN) Protein: Gene Identification via Genome-wide siRNA Screen.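 Further: luminescence tracks full-length SMN protein made from the SMN2 reporter.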 To be noted: HEK293T SMN2-luciferase reporter, siRNA knockdown, 72 h; actives lie on both sides. In a few lines:
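Luciferase signal, proportional to full-length SMN made from an SMN2 cDNA reporter in stable HEK293T cells, was read 72 h after siRNA reverse transfection. Values were expressed as MAD scores after non-targeting-control normalization and log10 conversion; seed analysis flagged off-targets.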
In general terms: A reporter such as luciferase makes a cellular process visible.
Turning to AAACAACAGUGGAGCUCUUTT against PLA2G12A, the median seed-adjusted z-score is inactive: 0.139.
Regarding GGUUCACCGCUGUCAGUUUTT against KLF7, the median seed-adjusted z-score was inactive: 0.393.
With AGAUGUCGCUCAUCCUUUATT against TMPRSS3, the median seed-adjusted z-score was inactive: -0.554.
For the sequence CCAUUUGGAUCCCACCUUCTT against FCGR2A, the median seed-adjusted z-score is inactive: -0.19.
Turning to GCUACUACCAGGAAUUCAATT against ATP4A, the median seed-adjusted z-score was inactive: 0.
Regarding GCAAGAUCUGAUGCACAUATT against NUAK2, the median seed-adjusted z-score was inactive: -0.0601.
With GAUAAUUCCAAGUCCAUGATT against NEUROD6, the median seed-adjusted z-score was inactive: -0.261.
With GCAACAGCAUGUCAUAGAATT against CCT5, the median seed-adjusted z-score is inactive: 0.
The result for CCACGACUCUGGAAACUAUTT against IL6R reads inactive: -0.441; that for GUUGUGAUGUGAAAUCGAATT against NCAM2, inactive: 0.192.
CAUUGGAAAUGAUAUCGUATT against SIPA1L1: the median seed-adjusted z-score is inactive: 0.0925.
On to AGAUCCUGCGCUAUGAGAATT against SCN1B, for which the median seed-adjusted z-score is inactive: 0.331.
Turning to GGAGCGUGUUUACAAUGUATT against MSR1, the median seed-adjusted z-score is inactive: 0.0743.
Consider UGAUUACGAGGUUCAUGUATT against RAB6B, for which the median seed-adjusted z-score was inactive: 0.
The result for GAGCGGACAUGAUAAGCAUTT against CD302 reads inactive: 0.0818.
For UCGCUUCACUGUGCACAUATT against SNX15, the median seed-adjusted z-score is inactive: -0.152.
Consider CCAUAUUACAAGAAUACGATT against RFK, for which the median seed-adjusted z-score is inactive: -0.00532.
As for CAUAUUCUCUGUUCACAAUTT against HRH4, the median seed-adjusted z-score is inactive: 0.247.
The result for GAAUUGACUGUAGAUCCAATT against KIF2A reads inactive: 0.289; that for AAUCUUCUUUUAUCCACAATT against VN1R5, inactive: 0.177; that for GGAUGUCUCAGAUUUAACATT against TAF11, inactive: -0.848.
Take GAGAAACCGCUUUCCUUCATT against APOBEC3H: the median seed-adjusted z-score is inactive: 0.256.
Regarding GCAAGCUGGUGUCUCCCAATT against MLXIPL, the median seed-adjusted z-score is inactive: 0.
GGUUGGAUUCGGAACUGAATT against KRT1: the median seed-adjusted z-score was inactive: -0.362.
Regarding CCAUCUCACUGACCAUUGUTT against ALOX12B, the median seed-adjusted z-score is inactive: 0.0071.
The result for GGUGUCUAAUCAAGACGUATT against ITPR2 reads inactive: 0.
For GAUCAUCUCUGAAACAGCATT against GYG1, the median seed-adjusted z-score was inactive: 0.119.
Turning to GUGCCUAUGUCAUCGUAUATT against REM1, the median seed-adjusted z-score is inactive: 0.231.
With CUGUCACACUUGCAACUCUTT against ISLR2, the median seed-adjusted z-score was inactive: 0.263.
Take GGUAUUGUCAUGUCCUAUATT against ACADL: the median seed-adjusted z-score was inactive: 0.223.
In the case of CGAUAGAUCAAGCACUAUUTT against ZBTB33, the median seed-adjusted z-score is inactive: 0.164.
For CGAGAAGGACGGUGAGAAATT against PITPNA, the median seed-adjusted z-score is inactive: -0.225.
The result for GGAGAUGCAUUACGUUUCATT against FGL2 reads inactive: 0; that for CAAGCACUGUUGACAACAATT against XPO4, inactive: 0.616.
On to GGACGGUCUUUAUAGAUGUTT against MORC4, for which the median seed-adjusted z-score is inactive: 0.13.
Turning to GAAUGCGAAGUGGAAGAAATT against WFDC6, the median seed-adjusted z-score is inactive: 0.0443.
On to GACGGAUCCUAAUAGACAATT against IGSF10, for which the median seed-adjusted z-score was inactive: -0.0992.
In the case of CAAAAAUGCGUGGAACUUUTT against SNRPB2, the median seed-adjusted z-score is inactive: -0.967.
On to CCAAUGUUGUGGUAAAGCUTT against ERMP1, for which the median seed-adjusted z-score was inactive: 0.231.
Turning to CCUCGAUUGUCUUCCGGAATT against UBA7, the median seed-adjusted z-score is active: 2.41.
The result for UGAACUGAUUAACAUAAUATT against MCFD2 reads inactive: -0.0111; that for GUCACUUGGUUUUACUCAATT against OTOG, inactive: -0.344.
As to CCGUAGCAAAGGAACAGCATT against ITGB1, the median seed-adjusted z-score is inactive: 0.
In the case of CCGAAACCGUGGACAUGUUTT against UBE4B, the median seed-adjusted z-score is inactive: -0.0364.
As to GACACUACCUUUCCGAGGATT against MEPCE, the median seed-adjusted z-score was inactive: -0.35.
Take CGCUCUACAUGGUCCGGUUTT against CA7: the median seed-adjusted z-score is inactive: -0.0754.
The result for GCGAGCAUAUAUUCCUAGATT against RIOK1 reads inactive: 0.0528; that for GAAUCAUGGGUAAAUCGAATT against SERINC3, inactive: 0.29; that for GGCAAAGGUUUAUUCCAGATT against KLK10, inactive: -0.902.
GGCAGACUUUCUACAUGCATT against NSF: the median seed-adjusted z-score was inactive: -0.0728.
GAUCUGAUUCUAUUGCGUATT against ADD1: the median seed-adjusted z-score was inactive: -0.0129.
Turning to GCGAAGUGUUUGUAAAUCATT against PTPN4, the median seed-adjusted z-score was inactive: -0.447.
The result for CGACAAUAAAGACCAAGUUTT against CYTH1 reads inactive: 0.348; that for GCUUUAUGAUGGAGUUGAATT against FANCL, inactive: -0.0823.
The result for CAGAUACACUUGGAAGUAUTT against SLC30A7 reads inactive: 0.0492; that for GGCUUCUUCUCAUAUCGGUTT against ATL3, inactive: 0.201.
For the sequence CCGGCAAGAUUAUCGAGUATT against HCFC1, the median seed-adjusted z-score was active: 1.47.
The result for GCCUUUACGUGAUACUAGUTT against EXTL3 reads inactive: -0.353; that for GGAAUUGUCCAGUCAAGUATT against GABRA1, inactive: -0.405; that for CAAUCGUCCAAUGAUCUUATT against PCDHB1, inactive: 0.342.
As for GGCAAUUCCAUGUAAGGAATT against MPP7, the median seed-adjusted z-score was inactive: 0.163.
For GCGGAGCAUUUGCAACAAATT against NR6A1, the median seed-adjusted z-score is inactive: -0.287.
GGGAGAAUUUUGGAACCGATT against KLHL5: the median seed-adjusted z-score was inactive: 0.48.
GUCUGGACAUGUUAGCUGATT against ANP32B: the median seed-adjusted z-score is inactive: 0.
The result for GGAUCGGAUGGAUAAGAAUTT against CTTN reads inactive: -0.314; that for CAAUCGCAAACUUACCAAATT against ANP32A, inactive: 0.377; that for “GACAGGACGUGAACAUGCATT against SLC22A18AS”, inactive: 0.0382.
The result for CGUAAAACCCAUCAAGUUUTT against B3GALNT1 reads inactive: 0.128.
The result for CGGCUUGCCUAGUUCUCUATT against TOP3A reads inactive: 0.474.
